# Experimental data published in PubChem BioAssay AID652054 (National Center for Advancing Translational Sciences (NCATS), 2013).
# The chains behind the UniProt entries cited, without tags or fusion partners.
# UniProt P35462, whole entry, looked up: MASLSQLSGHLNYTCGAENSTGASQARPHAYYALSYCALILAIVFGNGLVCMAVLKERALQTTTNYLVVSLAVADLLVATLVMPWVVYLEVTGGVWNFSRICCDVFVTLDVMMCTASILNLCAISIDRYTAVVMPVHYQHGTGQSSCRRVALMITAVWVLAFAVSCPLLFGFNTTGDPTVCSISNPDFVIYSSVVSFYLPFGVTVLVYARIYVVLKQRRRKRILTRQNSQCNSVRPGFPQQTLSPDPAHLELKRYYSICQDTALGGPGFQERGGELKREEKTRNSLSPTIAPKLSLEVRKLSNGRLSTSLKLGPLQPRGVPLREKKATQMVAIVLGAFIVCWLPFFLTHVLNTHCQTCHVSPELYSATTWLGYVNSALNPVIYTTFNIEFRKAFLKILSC
# Out of some 360,000 compounds screened, about 9,100 (2.5%) were called active. The shares of active, inactive and inconclusive entries below differ from those in the screen. No stated cut-off is given here; in the data, active means max response below about -50%; inconclusive means no clear call, values can overlap the other calls; inactive means above that. Peptide text beside a SMILES is read from it. * marks the point of attachment. Cbz = O=C(OCc1ccccc1)*
# Target: D(3) dopamine receptor (Homo sapiens) (UniProt P35462)
# Assay: qHTS of D3 Dopamine Receptor Antagonist: qHTS
# Conditions: D3R cells, DiscoveRx beta-arrestin luminescence, antagonist mode; stronger effect = lower value
# Method in brief: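 Cells expressing the human receptor were seeded at 1500 cells/well, incubated overnight at 37 degrees C in 5% CO2, then exposed to library compounds with dopamine controls for 90 minutes at 37 degrees C before luminescent detection.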
# On the % scale 0 is the no-effect control and ±100 the full control effect.
row,Compound,"max response, negative = inhibition"
1,CCOC(=O)[C@H]1[C@H]2COc3ccc(OC)cc3[C@@H]2N2C(=O)CN(C)C(=O)[C@@]12C,inconclusive: -30.5%
2,COc1cccc2cc(C(=O)CS(=O)(=O)c3ccc(Cl)cc3)c(=O)oc12,inactive: 9.49%
3,Cc1cc(C(=O)CNCc2ccco2)c(C)n1-c1ccc(F)cc1,inconclusive: -30.2%
4,COc1cc2ccccc2cc1C(=O)N/N=C/c1cccs1,inconclusive: -36.5%
5,CN(C)Cc1c(C(=O)Nc2ccccc2)[nH]c2ccccc12,active: -57.3%
6,COc1ccc(-c2cc(C(F)(F)F)nc(S(=O)(=O)CCCC(=O)Nc3cccc(O)c3)n2)cc1OC,active: -52.9%
7,N#Cc1nc(-c2ccc(F)cc2)oc1N1CCCCC1,inconclusive: -47.3%
8,N[C@H](CSCc1ccccc1)C(=O)Nc1ccc([N+](=O)[O-])cc1,inactive: -29.7%
9,Cc1cccc(C(=O)OCC(=O)Nc2ccc(F)cc2)c1,inconclusive: -34.6%
10,COC(=O)[C@@]1(Cc2ccc(F)cc2)[C@H]2c3cc(C(=O)N(C)C)n(CCO)c3C[C@H]2CN1C(=O)c1ccccc1,inactive: 6.07%
11,Cc1ccc2nc(-c3ccc(NC(=O)CNC4CC4)cc3)sc2c1,inactive: 6.29%
12,CC(=O)c1c(C)[nH]c(C(=O)Nc2ccc(Cl)cc2)c1C,inactive: 0.964%
13,CN(C)CCOC1c2ccccc2C=Cc2ccccc21,inconclusive: -44.1%
14,COc1cc([N+](=O)[O-])cc(/C=N/NC(=O)c2cccnc2)c1O,inconclusive: -46.7%
15,Cc1ccccc1-c1nc(CN2CCC(C(=O)NCCC3=CCCCC3)CC2)c(C)o1,inconclusive: -33.8%
16,O=[N+]([O-])c1ccc(N2CCNCC2)cc1Sc1nc2ccccc2[nH]1,active: -66.5%
17,COC(=O)C1CCCN1C(=O)C1CCCN1C(=O)CNC(=O)OCc1ccccc1 (stereo not drawn) (Cbz-Gly-Pro-Pro-OMe; configuration not given here),active: -54.5%
18,O=C(COC(=O)COc1ccccc1F)Nc1cccc(S(=O)(=O)N2CCCCC2)c1,inconclusive: -40.3%
19,COc1ccc(S(=O)(=O)N2CCOCC2)cc1NC(=O)Cc1ccsc1,inactive: 1.95%
20,Nc1nnc(CC(=O)N/N=C/c2cc([N+](=O)[O-])cc(Br)c2O)s1,active: -109%
21,Cc1ccc([C@H]2C(C(=O)O)=CC[C@@H](c3ccc(Cl)cc3)N2S(=O)(=O)c2ccc(C)cc2)cc1,active: -51.3%
22,COC(=O)C1(Cc2ccccc2)NC(c2ccccc2C)C2C(=O)N(c3ccc4c(c3)OCO4)C(=O)C21 (stereo not drawn),inconclusive: -37.7%
23,Cc1cccc(N(CC(=O)NCc2ccccc2)C(=O)CCC(=O)Nc2nccs2)c1,inconclusive: -33.2%
24,COC(=O)c1ccccc1NC(=S)N1CCN(C2CCCCC2)CC1,inconclusive: -34.5%
25,Cc1nc(NC(=O)c2ccccc2)sc1Cc1ccc2c(c1)OCO2,inactive: -6.17%
26,Cn1c(C(=O)NCCN2CCN(Cc3ccccc3)CC2)cc2c(=O)n(C)c3ccccc3c21,active: -93.1%
27,CC(O)(CC(=O)CC(=O)c1ccccc1)c1ccccc1 (stereo not drawn),inconclusive: -38.8%

row,Compound,"max response, negative = inhibition"
1,CC(C)C(=O)Nc1ccc2c(c1)nc(CCN1CCN(c3ccccc3)CC1)n2C,inconclusive: -36.6%
2,COc1ccc(Br)cc1C=NNS(=O)(=O)c1ccc(C)cc1,inconclusive: -43%
3,CC1(C)CC2(CC(c3ccccc3F)c3cc(Cl)c(O)cc3O2)NC(=S)N1 (stereo not drawn),inactive: -17.9%
4,CCc1nc2sc(C#N)c(N)c2c2c1CCCC2,inactive: 24.4%
5,CCOc1c(Cl)cc(Cl)cc1CNCCNCCO,inconclusive: -43.1%
6,O=C(Nc1ccccc1)c1nnsc1S(=O)(=O)c1ccc(Cl)cc1,inconclusive: -48.1%
7,CCOc1ccc(S(=O)(=O)Nc2cc(SCC(=O)O)c(O)c3ccccc23)cc1,active: -50.6%
8,CC(=O)Nc1cccc(-c2nnc(-c3ccc(C)cc3)o2)c1,inconclusive: -30.1%
9,CCOc1ccc(/C=N/NC(=O)c2ccccc2Cl)cc1CN1CC2CC(C1)c1cccc(=O)n1C2 (stereo not drawn),active: -85.1%
10,O=c1cc(CSc2nnc(-c3ccccc3)o2)c2ccccc2[nH]1,inconclusive: -37.7%
11,Nc1nc(-c2ccccc2)c(N=Nc2cccc3ccccc23)s1,inconclusive: -46.2%
12,O=C(CSc1ccccn1)Nc1cccc([N+](=O)[O-])c1,inconclusive: -44.7%
13,C[C@@H]1CN([C@@H](C)CO)C(=O)c2cc(NC(=O)c3ccccc3)ccc2O[C@@H](C)CCCCO[C@@H]1CN(C)Cc1ccc(C(F)(F)F)cc1,inactive: -27.9%
14,CCCCC1=CC2=C(c3ccco3)C(=O)C(C)(OC(=O)c3ccc(OC)cc3)C(=O)C2=CN1CC(C)C (stereo not drawn),inconclusive: -35.2%
15,Cc1ccccc1-n1nc2c(c1NC(=O)c1c(-c3ccccc3Cl)noc1C)CSC2,inconclusive: -32.4%
16,CC1(C)Cc2noc(N)c2C(C)(C)N1OC(=O)c1ccco1,inconclusive: -32.3%
17,O=C(Cc1csc(-c2ccccc2)n1)Nc1ccc(C(F)(F)F)cc1,active: -56.2%
18,O=[N+]([O-])c1ccc(/C=N/NC2=NS(=O)(=O)c3ccccc32)cc1,inconclusive: -30.7%
19,CCc1cc2c(=O)n(Cc3ccco3)c(SCc3c(C)noc3C)nc2s1,inconclusive: -41.5%
20,COc1cc(C2C(c3ccccc3)C(c3cc(OC)cc(=O)o3)C2c2ccccc2)oc(=O)c1 (stereo not drawn),inactive: 4.91%
21,Cc1ccc([N+](=O)[O-])c(OCCCN2CCCCCC2)c1,inconclusive: -32.1%
22,CCOC(=O)C1CCCN(C(=S)NC(=O)/C=C/c2ccc(F)cc2)C1 (stereo not drawn),inconclusive: -30.6%
23,O=C(OCc1ccccc1)c1ccccc1O,inactive: 1.53%
24,CCc1nc(NCC2CCCN2CC)c2nnn(Cc3ccccc3F)c2n1 (stereo not drawn),inconclusive: -31.2%
25,c1ccc2c(c1)CCN(CCCNc1nc3ccccc3n3cnnc13)C2,active: -109%
26,C[C@H]1CN([C@@H](C)CO)C(=O)c2cc(NC(=O)C3CCCCC3)ccc2O[C@H]1CN(C)S(=O)(=O)c1ccccc1,inconclusive: -34.8%

# 4 entries drawn at random from the list so far, as already listed:
row,Compound,"max response, negative = inhibition"
3,CC1(C)CC2(CC(c3ccccc3F)c3cc(Cl)c(O)cc3O2)NC(=S)N1 (stereo not drawn),inactive: -17.9%
21,Cc1ccc([N+](=O)[O-])c(OCCCN2CCCCCC2)c1,inconclusive: -32.1%
15,Cc1ccccc1-n1nc2c(c1NC(=O)c1c(-c3ccccc3Cl)noc1C)CSC2,inconclusive: -32.4%
22,CCOC(=O)C1CCCN(C(=S)NC(=O)/C=C/c2ccc(F)cc2)C1 (stereo not drawn),inconclusive: -30.6%
